From article doi:10.1101/2022.07.02.497654
No constants are given. Whether binding was seen depends on the method and setting. In cells and extracts the contact can be indirect. Some results given as binding are weak or reduced against the parent protein; the word gives no strength.

By UniProt entry, the sequences of proteins in these tests, tags left out. Where a name states a change or a piece, a line headed by the entry shows the natural chain unless it says otherwise.
UniProt Q15910: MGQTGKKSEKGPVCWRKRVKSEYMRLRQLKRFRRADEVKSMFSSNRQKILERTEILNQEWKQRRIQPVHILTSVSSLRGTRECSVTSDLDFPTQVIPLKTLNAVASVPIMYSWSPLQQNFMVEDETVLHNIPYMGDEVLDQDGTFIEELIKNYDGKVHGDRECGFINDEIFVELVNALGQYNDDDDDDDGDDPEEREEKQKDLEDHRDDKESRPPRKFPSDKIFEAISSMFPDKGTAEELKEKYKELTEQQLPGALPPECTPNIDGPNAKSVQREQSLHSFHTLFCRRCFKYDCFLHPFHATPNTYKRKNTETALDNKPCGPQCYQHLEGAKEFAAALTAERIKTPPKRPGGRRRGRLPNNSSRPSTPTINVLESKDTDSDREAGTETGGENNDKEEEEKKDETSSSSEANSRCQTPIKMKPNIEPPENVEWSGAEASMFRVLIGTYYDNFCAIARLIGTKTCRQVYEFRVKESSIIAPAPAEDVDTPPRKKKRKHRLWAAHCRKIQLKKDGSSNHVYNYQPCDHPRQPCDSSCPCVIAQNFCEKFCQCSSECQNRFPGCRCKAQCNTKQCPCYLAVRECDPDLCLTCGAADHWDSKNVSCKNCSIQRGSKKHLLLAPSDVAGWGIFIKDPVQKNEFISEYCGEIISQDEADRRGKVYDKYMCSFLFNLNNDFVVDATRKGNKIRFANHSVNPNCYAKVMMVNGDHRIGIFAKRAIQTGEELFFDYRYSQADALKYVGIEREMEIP
UniProt Q15022: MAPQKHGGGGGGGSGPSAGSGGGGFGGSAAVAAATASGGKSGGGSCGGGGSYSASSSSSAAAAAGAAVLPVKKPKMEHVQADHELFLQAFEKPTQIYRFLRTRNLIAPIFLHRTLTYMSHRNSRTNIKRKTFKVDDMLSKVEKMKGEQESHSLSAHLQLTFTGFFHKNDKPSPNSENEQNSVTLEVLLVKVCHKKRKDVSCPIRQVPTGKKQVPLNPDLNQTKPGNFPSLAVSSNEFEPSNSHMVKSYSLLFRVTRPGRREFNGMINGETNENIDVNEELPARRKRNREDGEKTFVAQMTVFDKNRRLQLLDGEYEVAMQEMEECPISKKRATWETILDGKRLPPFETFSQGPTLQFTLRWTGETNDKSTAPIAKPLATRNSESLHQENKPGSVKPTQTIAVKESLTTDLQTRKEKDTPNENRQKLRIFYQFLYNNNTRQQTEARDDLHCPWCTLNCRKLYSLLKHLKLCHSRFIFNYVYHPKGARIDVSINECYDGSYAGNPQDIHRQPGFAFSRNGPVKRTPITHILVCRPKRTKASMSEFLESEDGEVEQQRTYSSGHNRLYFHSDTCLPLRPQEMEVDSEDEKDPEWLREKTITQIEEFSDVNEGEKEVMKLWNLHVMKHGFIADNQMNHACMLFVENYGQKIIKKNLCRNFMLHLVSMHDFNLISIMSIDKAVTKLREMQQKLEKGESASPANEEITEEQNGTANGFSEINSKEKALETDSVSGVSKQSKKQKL
UniProt P33242: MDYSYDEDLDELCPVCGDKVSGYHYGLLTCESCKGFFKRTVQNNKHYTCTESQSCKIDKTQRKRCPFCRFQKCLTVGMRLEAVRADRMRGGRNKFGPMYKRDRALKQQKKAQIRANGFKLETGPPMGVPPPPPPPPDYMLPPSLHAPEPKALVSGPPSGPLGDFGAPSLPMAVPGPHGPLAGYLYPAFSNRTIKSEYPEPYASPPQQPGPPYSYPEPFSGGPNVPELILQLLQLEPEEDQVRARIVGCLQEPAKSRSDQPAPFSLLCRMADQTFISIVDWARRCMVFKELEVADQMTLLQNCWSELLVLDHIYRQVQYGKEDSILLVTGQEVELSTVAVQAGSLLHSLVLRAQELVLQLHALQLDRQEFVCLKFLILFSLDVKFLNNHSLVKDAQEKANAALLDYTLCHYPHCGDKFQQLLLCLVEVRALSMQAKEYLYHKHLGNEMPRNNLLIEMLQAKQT
UniProt Q61188: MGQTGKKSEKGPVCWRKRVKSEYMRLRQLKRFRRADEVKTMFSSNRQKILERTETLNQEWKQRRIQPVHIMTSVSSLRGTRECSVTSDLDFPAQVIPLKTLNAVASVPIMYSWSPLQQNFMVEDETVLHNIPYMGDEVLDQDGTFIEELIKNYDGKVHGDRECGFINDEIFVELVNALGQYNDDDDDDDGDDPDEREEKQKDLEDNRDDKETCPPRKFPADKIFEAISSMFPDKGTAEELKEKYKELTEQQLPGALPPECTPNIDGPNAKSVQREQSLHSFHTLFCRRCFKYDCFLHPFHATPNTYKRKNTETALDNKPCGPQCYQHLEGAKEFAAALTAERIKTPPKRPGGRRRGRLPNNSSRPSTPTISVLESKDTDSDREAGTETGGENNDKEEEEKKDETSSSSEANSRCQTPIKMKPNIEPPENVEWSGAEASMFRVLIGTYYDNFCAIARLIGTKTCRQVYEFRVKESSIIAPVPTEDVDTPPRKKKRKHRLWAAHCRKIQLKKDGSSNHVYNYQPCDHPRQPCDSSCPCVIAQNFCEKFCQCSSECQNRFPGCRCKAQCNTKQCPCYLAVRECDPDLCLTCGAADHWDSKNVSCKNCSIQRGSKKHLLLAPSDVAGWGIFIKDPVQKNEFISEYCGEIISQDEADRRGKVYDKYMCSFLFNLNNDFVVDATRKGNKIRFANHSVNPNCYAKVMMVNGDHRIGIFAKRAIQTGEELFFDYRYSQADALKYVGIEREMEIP
UniProt Q13285: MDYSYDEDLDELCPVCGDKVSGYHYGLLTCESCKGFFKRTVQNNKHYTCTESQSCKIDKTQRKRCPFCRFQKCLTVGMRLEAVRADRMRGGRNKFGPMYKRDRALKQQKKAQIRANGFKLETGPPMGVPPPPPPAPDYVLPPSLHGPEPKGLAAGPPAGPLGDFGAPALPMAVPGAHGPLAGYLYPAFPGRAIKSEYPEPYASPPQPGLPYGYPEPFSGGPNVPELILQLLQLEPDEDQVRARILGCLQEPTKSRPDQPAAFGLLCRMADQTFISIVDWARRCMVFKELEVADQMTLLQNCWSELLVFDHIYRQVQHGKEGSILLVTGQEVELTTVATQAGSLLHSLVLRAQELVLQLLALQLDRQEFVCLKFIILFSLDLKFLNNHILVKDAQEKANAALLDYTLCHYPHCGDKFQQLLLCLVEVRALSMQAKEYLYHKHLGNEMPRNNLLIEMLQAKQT
UniProt P35222: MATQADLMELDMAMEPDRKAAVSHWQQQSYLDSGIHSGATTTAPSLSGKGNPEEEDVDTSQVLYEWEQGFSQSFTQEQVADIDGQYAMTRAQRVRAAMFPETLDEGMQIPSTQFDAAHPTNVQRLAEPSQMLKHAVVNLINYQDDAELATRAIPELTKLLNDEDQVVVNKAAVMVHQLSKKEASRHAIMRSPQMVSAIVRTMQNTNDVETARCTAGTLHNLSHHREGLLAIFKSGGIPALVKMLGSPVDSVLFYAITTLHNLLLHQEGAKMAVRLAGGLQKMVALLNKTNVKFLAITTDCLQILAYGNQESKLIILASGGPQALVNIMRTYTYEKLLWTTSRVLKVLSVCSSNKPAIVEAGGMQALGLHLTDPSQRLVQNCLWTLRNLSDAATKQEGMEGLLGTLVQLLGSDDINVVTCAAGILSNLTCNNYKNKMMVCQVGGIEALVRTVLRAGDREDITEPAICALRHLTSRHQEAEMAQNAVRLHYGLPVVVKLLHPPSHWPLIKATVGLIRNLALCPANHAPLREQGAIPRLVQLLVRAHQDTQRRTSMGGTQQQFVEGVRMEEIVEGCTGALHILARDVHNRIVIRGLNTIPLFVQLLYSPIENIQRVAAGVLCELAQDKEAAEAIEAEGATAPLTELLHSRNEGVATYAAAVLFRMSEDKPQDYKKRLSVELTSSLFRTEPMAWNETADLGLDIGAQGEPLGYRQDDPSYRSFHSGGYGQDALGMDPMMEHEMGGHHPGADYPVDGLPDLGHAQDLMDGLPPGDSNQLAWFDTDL
UniProt Q02248: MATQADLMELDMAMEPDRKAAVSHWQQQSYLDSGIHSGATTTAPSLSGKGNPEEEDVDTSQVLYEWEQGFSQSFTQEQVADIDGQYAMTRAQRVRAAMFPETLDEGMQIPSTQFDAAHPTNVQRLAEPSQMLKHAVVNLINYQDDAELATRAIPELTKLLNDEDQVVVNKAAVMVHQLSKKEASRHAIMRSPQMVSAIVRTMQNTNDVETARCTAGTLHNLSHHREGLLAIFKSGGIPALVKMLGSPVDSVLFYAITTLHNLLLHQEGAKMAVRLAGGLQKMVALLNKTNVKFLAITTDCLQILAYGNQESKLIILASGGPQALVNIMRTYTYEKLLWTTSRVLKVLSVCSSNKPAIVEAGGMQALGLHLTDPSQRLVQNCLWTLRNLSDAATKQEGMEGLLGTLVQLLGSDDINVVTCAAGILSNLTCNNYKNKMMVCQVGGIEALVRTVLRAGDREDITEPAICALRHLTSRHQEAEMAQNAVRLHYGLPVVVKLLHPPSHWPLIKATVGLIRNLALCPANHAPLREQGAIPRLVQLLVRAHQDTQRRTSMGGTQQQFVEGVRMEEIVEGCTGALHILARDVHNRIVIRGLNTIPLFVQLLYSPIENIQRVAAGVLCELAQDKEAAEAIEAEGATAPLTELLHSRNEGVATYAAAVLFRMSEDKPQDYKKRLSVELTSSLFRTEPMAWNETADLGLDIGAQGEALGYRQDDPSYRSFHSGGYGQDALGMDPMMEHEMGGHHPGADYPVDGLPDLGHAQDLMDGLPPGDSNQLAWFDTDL

Experiments:
[1] = biological target: EZH2 (human (endogenous in NCI-H295R and in human adrenal tissue)) (UniProt Q15910); test: co-IP
[2] = biological target: SUZ12 (human (endogenous in NCI-H295R)) (UniProt Q15022); test: co-IP
[3] = biological target: SF1 (mouse) (mouse (endogenous in mouse adrenal)) (UniProt P33242); test: proximity ligation
[4] = biological target: EZH2 (mouse) (mouse (endogenous in mouse adrenal)) (UniProt Q61188); test: proximity ligation
[5] = biological target: EZH2 (human (endogenous in NCI-H295R and in human adrenal tissue)) (UniProt Q15910); test: proximity ligation
[6] = biological target: SF1 (NR5A1) (human (endogenous in NCI-H295R and in human adrenal tissue)) (UniProt Q13285); test: proximity ligation

Q: Which results are given for “p.S45P β-catenin (from UniProt P35222 1-781)”?
A: binding [1]: binds; binding [2]: no binding

Q: Which results are given for “β-catenin (mouse) (from UniProt Q02248 1-781)”?
A: binding [3]: binds; binding [4]: binds

Q: Which binding [5] does the source give for “β-catenin (human adrenal tissue) (from UniProt P35222 1-781)” here?
A: Its binding is “binds”.

Q: And the binding [6]?
A: The binding was “binds”.
